Source: paper PMC11014456
No constants are given. Whether binding was seen depends on the method and setting. In cells and extracts the contact can be indirect. Some entries that bind do so weakly or less than the wild type.

Assays:
[1] = molecular target: NEDD8 (rat (endogenous in primary rat Schwann cells)) (UniProt Q71UE8); test: co-IP; endogenous proteins from primary rat Schwann cells treated with db cAMP, NP-40 lysis buffer; anti-NEDD8 immunoprecipitate blotted for EGR2 and anti-EGR2 immunoprecipitate blotted for NEDD8; antibodies cross-linked to beads, overnight at 4°C; cells with or without MLN4924
[2] = molecular target: early growth response 2 (EGR2) (rat (endogenous in primary rat Schwann cells)) (UniProt P51774); test: co-IP; as a3, anti-EGR2 immunoprecipitate blotted for NEDD8, cells treated with db cAMP and MLN4924
[3] = molecular target: early growth response 2 (EGR2) (rat (endogenous in primary rat Schwann cells)) (UniProt P51774); test: co-IP; endogenous proteins from primary rat Schwann cells treated with db cAMP, NP-40 lysis buffer; anti-NEDD8 immunoprecipitate blotted for EGR2 and anti-EGR2 immunoprecipitate blotted for NEDD8; antibodies cross-linked to beads, overnight at 4°C; cells with or without MLN4924

| binding [1] | binding [3] | Substance | binding [2] |
| --- | --- | --- | --- |
| binds |  | early growth response 2 (EGR2) (from UniProt P51774 1-470) |  |
|  | binds | NEDD8 (from UniProt Q71UE8 1-76) | no binding (condition: cells treated with MLN4924) |
